Assay results published in PubChem BioAssay AID330 (DTP/NCI, 2004).
The list is a part of this screen's results and no random one: it gathers tests that were run many times, whatever their T/C, doses with no T/C, and many T/C values between a quarter and a half above the control. Further doses and runs are listed elsewhere. T/C is the treated group as % of the vehicle group. Some doses have a count of surviving animals in place of a T/C: the source files T/C as zero there, which appears to mark a toxic dose or a test without result, not a measured value. Some survivor counts are full or nearly so, which does not show that the dose was tolerated: survival well below the control is almost never listed, so the zero probably covers shortened survival too. Counts of survivors are from the toxicity check (mostly the fifth day) where no day follows; animals may have died later. Schedule codes are those of the source, taken here to give the interval after Q, in days (D) or hours (H), and the number of doses after X. Some doses were run more than once; the values are given in rising order. Where survival is the endpoint, the PubChem record calls one and a half times the control and up active, and a quarter to a half above the control has no call in these data; cut-offs in other NCI protocols can differ. Some T/C values carry the count of animals alive at the toxicity check (mostly the fifth day); without a count, all were alive then. Additions like (4×) stand for listed records that agree.

System: P388 leukemia ip, CD2F1 mice, survival T/C
Experiment: NCI In Vivo Anticancer Drug Screen. Data for tumor model P388 Leukemia (intraperitoneal) in CD2F1 (CDF1) mice
Settings: T/C endpoint: median survival time, higher T/C = longer survival
[1] = dose: 50.0 mg/kg/injection, schedule: Q01DX009 (ip), vehicle: saline
[2] = dose: 100.0 mg/kg/injection, schedule: Q01DX009 (ip), vehicle: saline
[3] = dose: 200.0 mg/kg/injection, schedule: Q01DX009 (ip), vehicle: saline
[4] = dose: 200.0 mg/kg/injection, schedule: Q01DX005 (ip), vehicle: saline
[5] = dose: 50.0 mg/kg/injection, schedule: Q01DX009 (ip), vehicle: saline with Tween-80
[6] = dose: 100.0 mg/kg/injection, schedule: Q01DX009 (ip), vehicle: saline with Tween-80
[7] = dose: 200.0 mg/kg/injection, schedule: Q01DX009 (ip), vehicle: saline with Tween-80
[8] = dose: 400.0 mg/kg/injection, schedule: Q04DX003 (ip), vehicle: saline
[9] = dose: 200.0 mg/kg/injection, schedule: Q01DX005 (ip), vehicle: Klucel (hydroxypropylcellulose) (HPC)
[10] = dose: 100.0 mg/kg/injection, schedule: Q01DX005 (ip), vehicle: Klucel (hydroxypropylcellulose) (HPC)
[11] = dose: 25.0 mg/kg/injection, schedule: Q01DX005 (ip), vehicle: Klucel (hydroxypropylcellulose) (HPC)

O=C1CC(c2ccc(Cl)cc2)C(c2ccc(Cl)cc2)C1=O (configuration not stated)
survivor count (dose: 50.0 mg/kg/injection, schedule: Q01DX001 (ip), vehicle: Klucel (hydroxypropylcellulose) (HPC)): 6 of 6 | survivor count (dose: 100.0 mg/kg/injection, schedule: Q01DX001 (ip), vehicle: Klucel (hydroxypropylcellulose) (HPC)): 6 of 6 | survivor count (dose: 200.0 mg/kg/injection, schedule: Q01DX001 (ip), vehicle: Klucel (hydroxypropylcellulose) (HPC)): 6 of 6

O=C(CBr)N(O)c1ccccc1OCc1ccccc1
survivor count (dose: 100.0 mg/kg/injection, schedule: Q01DX001 (ip), vehicle: saline): 2 of 6 | survivor count (dose: 200.0 mg/kg/injection, schedule: Q01DX001 (ip), vehicle: saline): 0 of 6 | survivor count (dose: 400.0 mg/kg/injection, schedule: Q01DX001 (ip), vehicle: saline): 0 of 6

CCn1c2nc(=O)n(C)c(=O)c-2[n+]([O-])c2cc(Br)ccc21
survivor count (dose: 50.0 mg/kg/injection, schedule: Q04DX002 (ip), vehicle: saline with Tween-80): 2 of 6 | survivor count (dose: 100.0 mg/kg/injection, schedule: Q04DX002 (ip), vehicle: saline with Tween-80): 0 of 6 and 1 of 6 | survivor count (dose: 200.0 mg/kg/injection, schedule: Q04DX002 (ip), vehicle: saline with Tween-80): 0 of 6 | survivor count (dose: 400.0 mg/kg/injection, schedule: Q04DX002 (ip), vehicle: saline with Tween-80): 0 of 6

C1=CCC23COCC2(C1)CSC3 (configuration not stated)
survivor count [1]: 3 of 6 | survivor count [2]: 5 of 6 | survivor count [3]: 0 of 6

OCCOCCN1CCN(C(c2ccccc2)c2ccccc2)CC1
survivor count [3]: 1 of 6

COc1cc(NCC(C)(O)CN(CC(C)C)C(C)C)c2ncccc2c1 (configuration not stated)
survivor count (dose: 100.0 mg/kg/injection, schedule: Q01DX005 (ip), vehicle: saline): 0 of 5 | survivor count [4]: 0 of 5

CCCC/C(C)=N/NC(=S)SC
survivor count [1]: 0 of 6 | survivor count [2]: 1 of 6 | survivor count [3]: 0 of 6

CCO/C=C1\SC(=S)N(c2ccccc2C)C1=O
T/C (dose: 10.0 mg/kg/injection, schedule: Q03HX024 (ip), vehicle: saline with Tween-80): 127 % of control | T/C (dose: 20.0 mg/kg/injection, schedule: Q03HX024 (ip), vehicle: saline with Tween-80): 126 and 130 % of control | T/C (dose: 33.0 mg/kg/injection, schedule: Q01DX009 (ip), vehicle: saline with Tween-80): 131 % of control | survivor count (dose: 40.0 mg/kg/injection, schedule: Q03HX024 (ip), vehicle: saline with Tween-80): 4 of 6 | T/C (dose: 44.0 mg/kg/injection, schedule: Q01DX009 (ip), vehicle: saline with Tween-80): 126 % of control | T/C [5]: 128 % of control | T/C (dose: 66.0 mg/kg/injection, schedule: Q01DX009 (ip), vehicle: saline with Tween-80): 128 % of control | survivor count (dose: 80.0 mg/kg/injection, schedule: Q03HX024 (ip), vehicle: saline with Tween-80): 4 of 5 | T/C [6]: 127 % of control | T/C [7]: 127 % of control | survivor count (dose: 300.0 mg/kg/injection, schedule: Q04DX003 (ip), vehicle: saline with Tween-80): 5 of 6 | survivor count (dose: 400.0 mg/kg/injection, schedule: Q01DX009 (ip), vehicle: saline with Tween-80): 1 of 6

CCOC(=O)c1ccc(N=NN2CN3CN(C2)CN(N=Nc2ccc(C(=O)OCC)cc2)C3)cc1
survivor count (dose: 200.0 mg/kg/injection, schedule: Q04DX002 (ip), vehicle: Klucel (hydroxypropylcellulose) (HPC)): 6 of 6 | survivor count (dose: 400.0 mg/kg/injection, schedule: Q04DX002 (ip), vehicle: Klucel (hydroxypropylcellulose) (HPC)): 6 of 6

Fc1ccc2[nH]cc(C3CCCN4CCCCC34)c2c1 (configuration not stated)
survivor count (dose: 200.0 mg/kg/injection, schedule: Q01DX001 (ip), vehicle: saline with Tween-80): 1 of 6 | survivor count (dose: 400.0 mg/kg/injection, schedule: Q01DX001 (ip), vehicle: saline with Tween-80): 0 of 6

Cc1cccc[n+]1CC(=O)C[n+]1ccccc1C
survivor count [4]: 1 of 5

NC(=O)c1[nH]cnc1/N=N/N(CCCl)Cc1ccccc1
T/C (dose: 66.0 mg/kg/injection, schedule: Q01DX009 (ip), vehicle: Klucel (hydroxypropylcellulose) (HPC)): 136 % of control | T/C (dose: 100.0 mg/kg/injection, schedule: Q04DX003 (ip), vehicle: Klucel (hydroxypropylcellulose) (HPC)): 143 % of control

O=C1CCCC1C(=S)S (configuration not stated)
survivor count [8]: 4 of 6

O=C1C=C(C/C=C/c2ccccc2)C(C/C=C/c2ccccc2)C=C1O (configuration not stated)
survivor count (dose: 5.0 mg/kg/injection, schedule: Q01DX009 (ip), vehicle: saline with Tween-80): 6 of 6

Nc1nc(N)c2c(Cl)c(CNc3ccc(Cl)c(Cl)c3)ccc2n1
T/C (dose: 3.0 mg/kg/injection, schedule: Q01DX009 (ip), vehicle: saline with Tween-80): 127 % of control

CC(=O)C(Cl)c1ccccc1Cl (configuration not stated)
T/C (dose: 100.0 mg/kg/injection, schedule: Q01DX009 (ip), vehicle: Klucel (hydroxypropylcellulose) (HPC)): 125 % of control | survivor count (dose: 200.0 mg/kg/injection, schedule: Q01DX009 (ip), vehicle: Klucel (hydroxypropylcellulose) (HPC)): 1 of 6 and 4 of 6

Nc1nnn(N)n1
survivor count [8]: 4 of 6

CC(C)c1ccc2c(c1)CCC1C(C)(CN)CCCC21C (configuration not stated)
survivor count [9]: 3 of 6

O=C1C(N=Nc2ccc(Cl)cc2)Sc2nc3ccccc3n21 (configuration not stated)
survivor count (dose: 240.0 mg/kg/injection, schedule: Q01DX005 (ip), vehicle: Klucel (hydroxypropylcellulose) (HPC)): 6 of 6

CCCCCCCCCCCC1=C(O)C(=O)C(CC2=C(O)C(=O)C(CCCCCCCCCCC)=C(O)C2=O)=C(O)C1=O
survivor count [10]: 6 of 6

c1ccc(-c2csc(=[N+]3CCCCC3)s2)cc1
T/C (dose: 12.5 mg/kg/injection, schedule: Q01DX009 (ip), vehicle: water): 121 (2×), 124 [5 of 6 alive], 133 % of control [5 of 6 alive] | T/C (dose: 25.0 mg/kg/injection, schedule: Q01DX009 (ip), vehicle: water): 128 [5 of 6 alive], 133, 135, 136 % of control | survivor count (dose: 50.0 mg/kg/injection, schedule: Q01DX009 (ip), vehicle: water): 0 of 6 | survivor count (dose: 100.0 mg/kg/injection, schedule: Q01DX009 (ip), vehicle: water): 0 of 6 | survivor count (dose: 200.0 mg/kg/injection, schedule: Q01DX009 (ip), vehicle: water): 0 of 6 | survivor count (dose: 400.0 mg/kg/injection, schedule: Q01DX009 (ip), vehicle: water): 0 of 6

CCOCN(COCC)C(C)Cc1ccccc1 (configuration not stated)
survivor count [5]: 2 of 6 | survivor count [6]: 2 of 6 | survivor count [7]: 0 of 6

CC(=O)OC(C[Se]c1ccccc1)OC(C)=O
survivor count (dose: 150.0 mg/kg/injection, schedule: Q01DX001 (ip), vehicle: saline with Tween-80): 1 of 6 and 2 of 6 | survivor count (dose: 300.0 mg/kg/injection, schedule: Q01DX001 (ip), vehicle: saline with Tween-80): 2 of 6

CC(C)(C)c1cc2c3c(c1)Oc1cc(C(C)(C)C)cc4c1C3(O)c1c(cc(C(C)(C)C)cc1O4)O2
survivor count (dose: 3.12 mg/kg/injection, schedule: Q01DX005 (ip), vehicle: Klucel (hydroxypropylcellulose) (HPC)): 6 of 6 | T/C [11]: 130 % of control | survivor count [11]: 4 of 6 | survivor count (dose: 50.0 mg/kg/injection, schedule: Q01DX005 (ip), vehicle: Klucel (hydroxypropylcellulose) (HPC)): 0 of 6 | survivor count [10]: 0 of 6 | survivor count [9]: 0 of 6

Cc1cc(=O)c2ccc3c(ccc4c(=O)cc(C)[nH]c43)c2[nH]1
survivor count (dose: 50.0 mg/kg/injection, schedule: Q01DX005 (ip), vehicle: saline with Tween-80): 3 of 6 | survivor count (dose: 100.0 mg/kg/injection, schedule: Q01DX005 (ip), vehicle: saline with Tween-80): 1 of 6 | survivor count (dose: 200.0 mg/kg/injection, schedule: Q01DX005 (ip), vehicle: saline with Tween-80): 1 of 6
